From PubChem BioAssay AID1347076 (National Center for Advancing Translational Sciences (NCATS), 2019)
About 13,000 (3.2%) of roughly 400,000 compounds were called active. Inconclusive results, whose numbers are uncertain, are shown with a selection of clear calls. Calls follow the shape of the dose curve; as a rule, active = well fitted cell-killing curve with a large enough effect; inconclusive = small, poorly fitted or top-dose-only effect, or effect the other way; inactive = flat fitted curve, though single readings scatter. Potencies beside an inconclusive call are fits to weak or partial responses and may not hold up.

assay: qHTS assay for MDR1-selective chemotherapeutics: Primary screen using the drug-selected MDR subline cells KB-V1; details: KB-V1 MDR cells viability, CellTiter-Glo, 72 h; activity change, negative = cytotoxicity: at 46.1 µM (top of the series); also: nearly all actives have a fitted effect of over 60% in size
Method in brief: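 qHTS viability screen in drug-selected KB-V1 MDR cells: 72 h compound treatment at 37 degrees C, ATP luminescence end point.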
% is scaled to controls: 0 for no effect and ±100 for the full control effect; potency is read from the fitted curve at half-maximal effect.

Row | Structure (SMILES) | Potency | activity change, negative = cytotoxicity
1 | O=C1CSCc2nc3ccccc3n21 | inactive | –
2 | O=C1CC(c2cc([N+](=O)[O-])ccc2Cl)c2c(ccc3ccccc23)N1 (stereo not given) | inconclusive: 2.31 µM [cytotoxic, full curve] | –
3 | O=C(/C=C/c1ccco1)c1ccccc1O | inactive | –
4 | O=C(N/N=C/c1ccco1)/C(=C/c1cccc([N+](=O)[O-])c1)NC(=O)c1ccccc1 | inconclusive: 35.5 µM [cytotoxic, single point] | –
5 | O=C(Nc1ccc(Cl)c(S(=O)(=O)N2CCCCC2)c1)c1ccncc1 | inconclusive: 20.6 µM [cytotoxic, single point] | –
6 | CCOc1ccc2c(c1)/C(=N/N1C(=O)c3ccccc3C1=O)C(=O)N2 | inconclusive: 13 µM [rising, partial curve] | –
7 | COc1cc(C(=O)Nc2ccc(-c3nc4cc(C)ccc4o3)c(O)c2)cc(OC)c1OC | inconclusive: 25.9 µM [cytotoxic, single point] | –
8 | COC(=O)c1ccc(NS(=O)(=O)c2c(C)[nH]c(C)c2C(=O)N2CCCC2)cc1 | inconclusive: 18.4 µM [rising, single point] | –
9 | Cc1cc(Cl)nc2ccccc12 | – | inconclusive: 30.9%
10 | Oc1ccc(Cl)cc1CNc1ccccn1 | inconclusive: 29.1 µM [rising, single point] | –
11 | Cc1ccccc1CCNC(=O)c1ccc2c(c1)nc1n2CCCCC1 | inactive | –
12 | Cc1ccc(S(=O)(=O)N2CCN(C(=O)c3ccc(Cl)nc3)CC2)cc1 | inconclusive: 18.4 µM [cytotoxic, single point] | –
13 | CCOC(=O)C1CCCN(Cc2ccc(OCc3ccccc3)c(OC)c2)C1 (stereo not given) | inconclusive: 4.61 µM [cytotoxic, full curve] | –
14 | Cc1ccc(OCc2nc(-c3ccccn3)no2)cc1 | inconclusive: 18.4 µM [cytotoxic, single point] | –
15 | CCCCN1C(=O)C(CC(=O)NCCCCc2ccccc2)CC(C(=O)N2CCCCCC2)=C1C (stereo not given) | inconclusive: 6.51 µM [cytotoxic, partial curve] | –
16 | Cc1c(NC(=O)c2cc3c(s2)CCCC3)c(=O)n(-c2ccccc2)n1C | inconclusive: 4.61 µM [rising, full curve, poor fit] | –
17 | CC1CCN(C(=O)Cn2cc(SCC(=O)NCC3CCCO3)c3ccccc32)CC1 (stereo not given) | inconclusive: 13 µM [cytotoxic, partial curve, poor fit] | –
18 | COc1ccccc1/C=N/N1CCN(c2ccc(Cl)cc2)CC1 | inactive | –
19 | COc1ccc(OCCNc2cc(N3CCOCC3)ccc2[N+](=O)[O-])cc1 | inconclusive: 29.1 µM [cytotoxic, single point] | –
20 | CCCCn1c(=O)[nH]c(=O)c2c(C(=O)OCC)cc(-c3cccs3)nc21 | inconclusive: 16.4 µM [cytotoxic, partial curve] | –
21 | CCc1ccc2nc(N(CCCN(C)C)C(=O)c3ccc(S(=O)(=O)N4CCc5ccccc5C4)cc3)sc2c1 | inactive | –
22 | CCOC(=O)c1cccc(NC(=O)c2cnc3sc(N4CCOCC4)nn3c2=O)c1 | inactive | –
23 | CC1CCN(C(=O)/C(=C\c2ccccc2)NC(=O)c2ccccc2)CC1 | inconclusive: 16.4 µM [cytotoxic, partial curve] | –

Of the compounds above, these have sulfur:
Row | Structure (SMILES) | Potency | activity change, negative = cytotoxicity
1 | O=C1CSCc2nc3ccccc3n21 | inactive | –
5 | O=C(Nc1ccc(Cl)c(S(=O)(=O)N2CCCCC2)c1)c1ccncc1 | inconclusive: 20.6 µM [cytotoxic, single point] | –
8 | COC(=O)c1ccc(NS(=O)(=O)c2c(C)[nH]c(C)c2C(=O)N2CCCC2)cc1 | inconclusive: 18.4 µM [rising, single point] | –
12 | Cc1ccc(S(=O)(=O)N2CCN(C(=O)c3ccc(Cl)nc3)CC2)cc1 | inconclusive: 18.4 µM [cytotoxic, single point] | –
16 | Cc1c(NC(=O)c2cc3c(s2)CCCC3)c(=O)n(-c2ccccc2)n1C | inconclusive: 4.61 µM [rising, full curve, poor fit] | –
17 | CC1CCN(C(=O)Cn2cc(SCC(=O)NCC3CCCO3)c3ccccc32)CC1 (stereo not given) | inconclusive: 13 µM [cytotoxic, partial curve, poor fit] | –
20 | CCCCn1c(=O)[nH]c(=O)c2c(C(=O)OCC)cc(-c3cccs3)nc21 | inconclusive: 16.4 µM [cytotoxic, partial curve] | –
21 | CCc1ccc2nc(N(CCCN(C)C)C(=O)c3ccc(S(=O)(=O)N4CCc5ccccc5C4)cc3)sc2c1 | inactive | –
22 | CCOC(=O)c1cccc(NC(=O)c2cnc3sc(N4CCOCC4)nn3c2=O)c1 | inactive | –

Continued.

Row | Structure (SMILES) | Potency | activity change, negative = cytotoxicity
24 | O=C(CN1CCCN(S(=O)(=O)c2ccc(F)cc2)CC1)Nc1cccc(F)c1 | inconclusive: 3.66 µM [cytotoxic, full curve] | –
25 | Cc1c(Cl)cccc1N/C(SCC(=O)N1CCCCCC1)=C(/C#N)c1nc2ccccc2s1 | active: 14.6 µM | –
26 | COC(=O)c1ccccc1NC(=O)CSc1nc(C)c(Cl)c(C)c1C#N | inconclusive: 23.1 µM [cytotoxic, partial curve, poor fit] | –
27 | S=C(N/N=C/c1ccc2ncccc2c1)Nc1cccnc1 | inactive | –
28 | NS(=O)(=O)c1ccc(CCNC(=O)CNCCc2ccccc2)cc1 | inconclusive: 14.6 µM [rising, partial curve, poor fit] | –
29 | CCCCc1c(-c2ccccc2OC)ncn1Cc1cccc(-c2ccccc2)c1 | active: 14.6 µM | –
30 | O=C1c2c(-c3ccc(Br)cc3)noc2CCN1Cc1cn(C2CCCC2)nn1 | active: 20.6 µM | –
31 | O=C(NCCc1ccccn1)c1cccc(S(=O)(=O)N2CCc3ccccc32)c1 | inconclusive: 5.17 µM [cytotoxic, partial curve] | –
32 | N=c1oc2ccc(Br)cc2cc1C(=O)NC1CCCCCC1 | inactive | –
33 | O=C1NC(=O)C2(CCCc3ccccc32)N1 (stereo not given) | inactive | –
34 | N#CC(c1ccccc1)c1ccc2c(C(F)(F)F)cc(C(F)(F)F)nc2n1 (stereo not given) | inactive | –
35 | Cc1ccc(SCC(=O)Nc2ccc3oc(-c4cccc(Cl)c4)nc3c2)cc1 | inactive | –
36 | CC(C)(C)N1C(=O)c2ccc(C(=O)Nc3ccc(O)cc3)cc2C1=O | active: 8.2 µM | –
37 | COc1cccc(-c2csc(N3CCN(CC(=O)NNC(=O)c4ccc(Cl)cc4)CC3)n2)c1 | inconclusive: 25.9 µM [cytotoxic, single point] | –
38 | COC(=O)[C@]12CCCCC=C1N(Cc1ccccc1)C(=O)[C@H](CC(=O)NCc1cccc(C(F)(F)F)c1)C2 | inconclusive: 13 µM [cytotoxic, partial curve] | –
39 | Cn1cc(Br)c(C(=O)N/N=C/c2cc3c(cc2Cl)OCO3)n1 | inactive | –
40 | C=CCOC(=O)c1sc(NC(=O)c2ccco2)nc1C | inconclusive: 29.1 µM [cytotoxic, single point] | –
41 | COc1ccc(-c2cc(-c3ccccc3)c(C#N)c(S(C)=O)n2)cc1 (stereo not given) | inactive | –
42 | CC[N+](C)(C)c1ccc(/C=C/c2ccnc3ccccc23)cc1 | inconclusive: 29.1 µM [cytotoxic, partial curve, poor fit] | –
43 | COc1ccccc1NC(=O)Cn1nc(-c2ccc(Cl)cc2)c2ccccc2c1=O | inconclusive: 20.6 µM [cytotoxic, partial curve] | –
44 | Cc1ccc(S(=O)(=O)N2CCN(C(=O)c3ccc(N4CCCC4)c([N+](=O)[O-])c3)CC2)cc1 | inconclusive: 2.91 µM [cytotoxic, partial curve] | –
45 | COc1cccc(-c2cc(C(=O)Nc3cc(C)n(Cc4ccc(Cl)cc4)n3)no2)c1 | inconclusive: 29.1 µM [cytotoxic, single point] | –
